Assay results published in PubChem BioAssay AID1489 (National Center for Advancing Translational Sciences (NCATS), 2009).
Shown are results outside the selection of hits, which stands elsewhere. Records with an inconclusive call do not appear. Activity calls are given as the source filed them. Calls come from the whole dose curve; as a rule, active = well fitted antagonist curve with a large enough effect in the main read-out, with a control signal flat; inconclusive = small, poorly fitted or top-dose-only effect; inactive = no such curve, though single readings can be large or run the other way.

By UniProt entry, the sequences of proteins in these tests, tags left out. Where a name states a change or a piece, a line headed by the entry shows the natural chain unless it says otherwise.
UniProt Q6W5P4: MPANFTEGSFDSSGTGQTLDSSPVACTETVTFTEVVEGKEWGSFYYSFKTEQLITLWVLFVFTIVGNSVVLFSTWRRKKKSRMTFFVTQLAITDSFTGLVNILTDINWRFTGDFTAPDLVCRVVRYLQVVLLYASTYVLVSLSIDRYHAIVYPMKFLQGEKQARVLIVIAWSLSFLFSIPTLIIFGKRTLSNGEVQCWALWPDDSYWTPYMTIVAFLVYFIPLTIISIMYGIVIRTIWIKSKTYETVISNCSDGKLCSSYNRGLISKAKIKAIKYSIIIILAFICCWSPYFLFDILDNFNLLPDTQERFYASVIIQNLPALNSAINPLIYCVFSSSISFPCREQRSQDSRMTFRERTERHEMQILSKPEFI

Target: Neuropeptide S receptor (Homo sapiens) (UniProt Q6W5P4)
Test: Confirmation Concentration-Response Assay for Antagonists of the Neuropeptide S Receptor: Calcium Signal Transduction
Conditions: CHO-NPSR cells, NPS-induced calcium flux, FDSS; at 19.3 µM (top of the series)
From the text: NIH Chemical Genomics Center [NCGC] NIH Molecular Libraries Probe Production centers Network [MLPCN] MLPCN Grant: X01-DA026210-01 Assay Submitter (PI): Heilig, Markus Alexander NCGC Assay Overview: Neuropeptide S receptor (NPSR), previously known as GPR154, is a recently de-orphanized G protein coupled receptor. Its endogenous ligand is the 20 amino acids peptide Neuropeptide S (NPS). […] NPS and its receptor are found in various tissues. Specifically they are highly expressed in brain areas that have been implicated in modulation of arousal, stress and anxiety. […] This change in intracellular calcium can be detected using a calcium indicator dye on a calcium imaging plate reader system (FDSS).
NCGC Assay Protocol Summary: A Chinese hamster ovary (CHO) cell line stably expressing the NPS receptor (CHO-NPSR) was obtained from Dr. Heilig lab at NIAAA and maintained in F-12 Kaighn's media (Invitrogen, Carlsbad, CA, 21127) supplemented with 10 % FBS, 100 units/ml penicillin, 100 ug/ml streptomycin and 250 ug/ml geneticin at 37C, 5% CO2 in a humidified atmosphere. […] The assay was performed on a FDSS-7000 kinetic plate reader in 1536-well format. For both agonist (1-220s) and antagonist (221-400s) phases, the maximums of kinetic fluorescence responses were converted separately into text files using the instrument's software data export utility. […]

SMILES: CN(C)c1ccc2nc3ccc(=[N+](C)C)cc-3sc2c1
- activity change, negative = inhibition: inactive: 7.9%
